Source: doi:10.1101/2025.08.30.673243

Tests used:
[1] = biological target: HeLa cohesin (unlabelled cohesin-STAG1) (human (endogenous in HeLa)); test: single-molecule fluorescence imaging of DNA loop extrusion
[2] = biological target: recombinant cohesin (c357), tetrameric (human); test: mass photometry

- binding [1]: binds
B1: PDS5A labelled with JF646 (protein, UniProt Q29RF7 1-1337)
chain: MDFTAQPKPATALCGVVSADGKIAYPPGVKEITDKITTDEMIKRLKMVVKTFMDMDQDSEDEKQQYLPLALHLASEFFLRNPNKDVRLLVACCLADIFRIYAPEAPYTSHDKLKDIFLFITRQLKGLEDTKSPQFNRYFYLLENLAWVKSYNICFELEDCNEIFIQLFRTLFSVINNSHNKKVQMHMLDLMSSIIMEGDGVTQELLDSILINLIPAHKNLNKQSFDLAKVLLKRTVQTIEACIANFFNQVLVLGRSSVSDLSEHVFDLIQELFAIDPHLLLSVMPQLEFKLKSNDGEERLAVVRLLAKLFGSKDSDLATQNRPLWQCFLGRFNDIHVPVRLESVKFASHCLMNHPDLAKDLTEYLKVRSHDPEEAIRHDVIVTIITAAKRDLALVNDQLLGFVRERTLDKRWRVRKEAMMGLAQLYKKYCLHGEAGKEAAEKVSWIKDKLLHIYYQNSIDDKLLVEKIFAQYLVPHNLETEERMKCLYYLYASLDPNAVKALNEMWKCQNMLRSHVRELLDLHKQPTSEANCSAMFGKLMTIAKNLPDPGKAQDFVKKFNQVLGDDEKLRSQLELLISPTCSCKQADICVREIARKLANPKQPTNPFLEMVKFLLERIAPVHIDSEAISALVKLMNKSIEGTADDEEEGVSPDTAIRSGLELLKVLSFTHPTSFHSAETYESLLQCLRMEDDKVAEAAIQIFRNTGHKIETDLPQIRSTLIPILHQKAKRGTPHQAKQAVHCIHAIFTNKEVQLAQIFEPLSRSLNADVPEQLITPLVSLGHISMLAPDQFASPMKSVVANFIVKDLLMNDRSTGEKNGKLWSPDEEVSPEVLAKVQAIKLLVRWLLGMKNNQSKSANSTLRLLSAMLVSEGDLTEQKRISKSDMSRLRLAAGSAIMKLAQEPCYHEIITPEQFQLCALVINDECYQVRQIFAQKLHKALVKLLLPLEYMAIFALCAKDPVKERRAHARQCLLKNISIRREYIKQNPMATEKLLSLLPEYVVPYMIHLLAHDPDFTRSQDVDQLRDIKECLWFMLEVLMTKNENNSHAFMKKMAENIKLTRDAQSPDESKTNEKLYTVCDVALCVINSKSALCNADSPKDPVLPMKFFTQPEKDFCNDKSYISEETRVLLLTGKPKPAGVLGAVNKPLSATGRKPYVRSTGTETGSNINVNSELNPSTGNRSREQSSEAAETGVSENEENPVRIISVTPVKNIDPVKNKEINSDQATQGNISSDRGKKRTVTAAGAENIQQKTDEKVDESGPPAPSKPRRGRRPKSESQGNATKNDDLNKPINKGRKRAAVGQESPGGLEAGNAKAPKLQDLAKKAAPAERQIDLQR
modifications: JF646-HaloTag ligand on the HaloTag

- binding [2]: binds
B2: PDS5B (recombinant, unlabelled) (protein, UniProt Q9NTI5 1-1447)
chain: MAHSKTRTNDGKITYPPGVKEISDKISKEEMVRRLKMVVKTFMDMDQDSEEEKELYLNLALHLASDFFLKHPDKDVRLLVACCLADIFRIYAPEAPYTSPDKLKDIFMFITRQLKGLEDTKSPQFNRYFYLLENIAWVKSYNICFELEDSNEIFTQLYRTLFSVINNGHNQKVHMHMVDLMSSIICEGDTVSQELLDTVLVNLVPAHKNLNKQAYDLAKALLKRTAQAIEPYITNFFNQVLMLGKTSISDLSEHVFDLILELYNIDSHLLLSVLPQLEFKLKSNDNEERLQVVKLLAKMFGAKDSELASQNKPLWQCYLGRFNDIHVPIRLECVKFASHCLMNHPDLAKDLTEYLKVRSHDPEEAIRHDVIVSIVTAAKKDILLVNDHLLNFVRERTLDKRWRVRKEAMMGLAQIYKKYALQSAAGKDAAKQIAWIKDKLLHIYYQNSIDDRLLVERIFAQYMVPHNLETTERMKCLYYLYATLDLNAVKALNEMWKCQNLLRHQVKDLLDLIKQPKTDASVKAIFSKVMVITRNLPDPGKAQDFMKKFTQVLEDDEKIRKQLEVLVSPTCSCKQAEGCVREITKKLGNPKQPTNPFLEMIKFLLERIAPVHIDTESISALIKQVNKSIDGTADDEDEGVPTDQAIRAGLELLKVLSFTHPISFHSAETFESLLACLKMDDEKVAEAALQIFKNTGSKIEEDFPHIRSALLPVLHHKSKKGPPRQAKYAIHCIHAIFSSKETQFAQIFEPLHKSLDPSNLEHLITPLVTIGHIALLAPDQFAAPLKSLVATFIVKDLLMNDRLPGKKTTKLWVPDEEVSPETMVKIQAIKMMVRWLLGMKNNHSKSGTSTLRLLTTILHSDGDLTEQGKISKPDMSRLRLAAGSAIVKLAQEPCYHEIITLEQYQLCALAINDECYQVRQVFAQKLHKGLSRLRLPLEYMAICALCAKDPVKERRAHARQCLVKNINVRREYLKQHAAVSEKLLSLLPEYVVPYTIHLLAHDPDYVKVQDIEQLKDVKECLWFVLEILMAKNENNSHAFIRKMVENIKQTKDAQGPDDAKMNEKLYTVCDVAMNIIMSKSTTYSLESPKDPVLPARFFTQPDKNFSNTKNYLPPEMKSFFTPGKPKTTNVLGAVNKPLSSAGKQSQTKSSRMETVSNASSSSNPSSPGRIKGRLDSSEMDHSENEDYTMSSPLPGKKSDKRDDSDLVRSELEKPRGRKKTPVTEQEEKLGMDDLTKLVQEQKPKGSQRSRKRGHTASESDEQQWPEEKRLKEDILENEDEQNSPPKKGKRGRPPKPLGGGTPKEEPTMKTSKKGSKKKSGPPAPEEEEEEERQSGNTEQKSKSKQHRVSRRAQQRAESPESSAIESTQSTPQKGRGRPSKTPSPSQPKKNVRVGRSKQAATKENDSSEEVDVFQGSSPVDDIPQEETEEEEVSTVNVRRRSAKRERR

- binding [1]: binds
B3: PDS5B labelled with JF646 (protein, UniProt Q9NTI5 1-1447)
chain: B2 chain
modifications: JF646-HaloTag ligand on the HaloTag

Results are given in words; binding and its absence hold for the method and conditions named. A result given as binding can be weak or reduced; the word gives no strength. Each block holds one binder with its values, some of them ahead of it.
